# Measurements reported in PubChem BioAssay AID1347076 (National Center for Advancing Translational Sciences (NCATS), 2019).
# About 13,000 (3.2%) of roughly 400,000 compounds were called active. The inconclusive results got no clear call from the source; some entries with a clear call stand among them for comparison. Calls come from the whole dose curve; as a rule, active = well fitted cell-killing curve with a large enough effect; inconclusive = small, poorly fitted or top-dose-only effect, or effect the other way; inactive = flat fitted curve, though single readings scatter. A potency beside an inconclusive call is a rough fit, not a confirmed value.
# Assay: qHTS assay for MDR1-selective chemotherapeutics: Primary screen using the drug-selected MDR subline cells KB-V1; note: nearly all actives have a fitted effect of over 60% in size
# Settings: KB-V1 MDR cells viability, CellTiter-Glo, 72 h; activity change, negative = cytotoxicity: at 46.1 µM (top of the series)
# In short: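 qHTS viability screen in drug-selected KB-V1 MDR cells: 72 h compound treatment at 37 degrees C, ATP luminescence end point.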
# % is set by controls: 0 for no effect and ±100 for the full control effect; potency is the fitted concentration of half-maximal effect.
SMILES,Potency,"activity change, negative = cytotoxicity"
CCc1nnc(NC(=O)CCC(=O)N2CCN(Cc3ccc(C)cc3C)CC2)s1,"inconclusive: 18.4 µM [cytotoxic, partial curve, poor fit]",
COc1ccc(-c2cc(-c3ccccc3)nc3c2COc2ccccc2-3)cc1,,inactive: 0%
COC(=O)[C@]12CCCCC=C1N(CCC1=CCCCC1)C(=O)[C@H](CC(=O)N1CCSCC1)C2,"inconclusive: 0.731 µM [cytotoxic, full curve, poor fit]",
COC(=O)C(C)n1cnc2c(nnn2Cc2ccc(Cl)cc2)c1=O (centres undefined),"inconclusive: 16.4 µM [cytotoxic, partial curve, poor fit]",
CCCc1nc2sc3c(c2c(=O)n1NC(=O)CCCl)CCCC3,"inconclusive: 11.6 µM [cytotoxic, partial curve]",
Cc1nn(-c2ccccc2)c2sc(C(=O)N3CCc4ccccc4C3)cc12,active: 18.4 µM,
O=C1C2CC=CCC2C(=O)N1c1cccc(OS(=O)(=O)c2ccc3ccccc3c2)c1 (centres undefined),active: 20.6 µM,
Cc1ccc(-n2c(C)cc(C(=O)COC(=O)c3c(C)noc3C)c2C)cc1,active: 6.51 µM,
C/C(CC(=O)Nc1ccc2c(c1)OCCO2)=N\NC(=O)c1ccccn1,"inconclusive: 23.1 µM [rising, single point]",
C/C(=N\NC(=O)c1c(Cl)c(C)nn1C)c1cccc(NC(=O)COc2ccc(Cl)cc2)c1,"inconclusive: 5.8 µM [cytotoxic, full curve]",
CCOC(=O)CN1C(=O)N[C@@H](c2cccc(F)c2)C(C(=O)OC)=C1C,"inconclusive: 0.0073 µM [cytotoxic, full curve]",
COc1cc2c(cc1NC(=O)COC(=O)[C@@H](NC(=O)c1ccccc1F)C(C)C)oc1ccccc12,active: 16.4 µM,
CCc1ccccc1N(c1nc(-c2ccc(OC)c(OC)c2)no1)c1nc(-c2ccc(OC)c(OC)c2)no1,,inactive: 12.7%
CC1(C)SC2C(NC(=O)COc3ccccc3)C(=O)N2C1C(=O)O (centres undefined),"inconclusive: 11.6 µM [rising, partial curve, poor fit]",
O=C(Nc1ccc(NC(=O)c2ccco2)cc1)c1ccco1,,inactive: -16.2%
CC(C)(C)n1nnnc1C(c1cc2ccccc2o1)N(Cc1ccccc1)Cc1ccccc1 (centres undefined),active: 20.6 µM,
CC1CCC(NC(=O)c2cccc(S(=O)(=O)N3CCOCC3)c2)CC1 (centres undefined),"inconclusive: 29.1 µM [cytotoxic, single point]",
Cc1nc2scc(-c3ccccc3)c2c(=O)n1N=C1C=CC(=O)C=C1,"inconclusive: 29.1 µM [cytotoxic, single point]",
COC(=O)c1ccc2nc(-c3cccc(Br)c3)c(Cc3ccccc3)n2c1,"inconclusive: 20.6 µM [cytotoxic, single point]",

# Reprinted at random: 2 records from the list, in no set order.
SMILES,Potency,"activity change, negative = cytotoxicity"
COc1ccc(-c2cc(-c3ccccc3)nc3c2COc2ccccc2-3)cc1,,inactive: 0%
CCOC(=O)CN1C(=O)N[C@@H](c2cccc(F)c2)C(C(=O)OC)=C1C,"inconclusive: 0.0073 µM [cytotoxic, full curve]",
